Measured values reported in US8476197B2, “Aminopropenoates as fungicides” (priority 2009, dated 2013).
Some entries share one result that the patent states for a list of compounds.

test system: Phytophthora infestans; type: in vivo; conditions: preventive, tomato, 500 ppm of active ingredient, evaluated 7 days after inoculation

Structure (SMILES) | efficacy [%]
CCOC(=O)C(C#N)=C(NC(C)c1cccs1)c1cn(C)nc1C(F)F (stereo not drawn) [Compound 213] | ≥ 70
CCOC(=O)C(C#N)=C(NC(Cc1ncccc1C)C(F)(F)F)c1cn(C)nc1C(F)F (stereo not drawn) [Compound 1223] | ≥ 70
CCOC(=O)C(C#N)=C(NC(C)c1cc(C(F)(F)F)c(Cl)cn1)c1cccnc1Cl (stereo not drawn) [Compound 1638] | ≥ 70
CCCCCC(C)NC(=C(C#N)C(=O)OCC)c1cccnc1Cl (racemic) [Compound 859] | ≥ 70
CCOC(=O)C(C#N)=C(NCC(c1ccccc1)C(C)C)c1cn(C)nc1C(F)F (racemic) [Compound 1239] | ≥ 70
CCOC(=O)C(C#N)=C(NC(C)C1(Cl)CC1)c1ccsc1Br (stereo not drawn) [Compound 774] | ≥ 70
C=CCOC(=O)C(C#N)=C(NC(C)C(C)C)c1cn(C)nc1C(F)F (stereo not drawn) [Compound 998] | ≥ 70
CC(C)NC(=O)C(C#N)=C(NC(C)C(C)C)c1cccnc1Cl (stereo not drawn) [Compound 957] | ≥ 70
CCOC(=O)C(C#N)=C(NC1CC2CCC1C2)c1cn(C)nc1C(F)F (stereo not drawn) [Compound 1144] | ≥ 70
COC(=O)C(C#N)=C(NC(C)C1CC1)c1cccnc1Cl (stereo not drawn) [Compound 880] | ≥ 70
CCOC(=O)C(C#N)=C(NC(C)C(C)C)c1cccnc1C(C)=O (stereo not drawn) [Compound 980] | ≥ 70
COC(=O)C(C#N)=C(NC(C)c1ccccn1)c1cn(C)nc1C(F)F (racemic) [Compound 59] | ≥ 70
CC#CC(C)NC(=C(C#N)C(=O)NCC)c1cccnc1Cl (stereo not drawn) [Compound 1119] | ≥ 70
CCOC(=O)C(C#N)=C(NC1CC1)c1cccnc1Cl [Compound 764] | ≥ 70
COC(=O)C(C#N)=C(NC(C)c1nc2ccccc2s1)c1cccnc1Cl (stereo not drawn) [Compound 15] | ≥ 70
CCOC(=O)C(C#N)=C(NC(C)c1nccs1)c1cn(C)nc1C(C)(F)F (stereo not drawn) [Compound 312] | ≥ 70
CCOC(=O)C(C#N)=C(NC(C)c1nccs1)c1cn(C)nc1C (stereo not drawn) [Compound 1212] | ≥ 70

Structure (SMILES) | efficacy [%]
CCOC(=O)C(C#N)=C(NC(C)C(C)Sc1ccccc1)c1cn(C)nc1C(F)F (stereo not drawn) [Compound 737] | ≥ 70
CCOC(=O)C(C#N)=C(NC(C)C1CC1)c1cccnc1C(F)F (racemic) [Compound 899] | ≥ 70
CCOC(=O)C(C#N)=C(NC1CC2CCC1C2)c1cccnc1Cl (stereo not drawn) [Compound 1081] | ≥ 70
CCOC(=O)C(C#N)=C(NC(C#N)CC(C)C)c1cn(C)nc1C(F)F (racemic) [Compound 1252] | ≥ 70
COC(=O)C(C#N)=C(NC1CCC1)c1cccnc1Cl [Compound 793] | ≥ 70
CCNC(=O)C(C)NC(=C(C#N)C(=O)OCC)c1cccnc1Cl (stereo not drawn) [Compound 728] | ≥ 70
CCOC(=O)C(C#N)=C(NC(C)c1ccc(C(C)C)cc1)c1cn(C)nc1C(F)F (racemic) [Compound 550] | ≥ 70
CCOC(=O)C(C#N)=C(NC1CCCNC1=O)c1cccnc1Cl (racemic) [Compound 239] | ≥ 70
CCOC(=O)C(C#N)=C(NC(C)COc1ccccc1)c1cccnc1Cl (stereo not drawn) [Compound 1161] | ≥ 70
COC(=O)C(C#N)=C(NC(C)c1cccs1)c1sc(C)nc1C(F)(F)F (stereo not drawn) [Compound 210] | ≥ 70
CCOC(=O)C(C#N)=C(NC(C)C(=O)NC)c1cccnc1C(F)(F)F (stereo not drawn) [Compound 706] | ≥ 70
CCNC(=O)C(C#N)=C(NC(C)c1nccs1)c1cccnc1Cl (stereo not drawn) [Compound 328] | ≥ 70
CC(NC(=C(C#N)C(=O)OC1CCC1)c1cccnc1Cl)c1nccs1 (racemic) [Compound 268] | ≥ 70
CCOC(=O)C(C#N)=C(NC(C)C)c1cn(C)nc1C(F)F [Compound 1419] | ≥ 70
CCOC(=O)C(C#N)=C(NC(C)COc1cccc(OC)c1)c1cn(C)nc1C(F)F (stereo not drawn) [Compound 742] | ≥ 70
C=CCNC(=O)C(C#N)=C(NC(C)C(C)C)c1cn(C)nc1C(F)F (stereo not drawn) [Compound 1008] | ≥ 70
